This is one part of the list.
How the values were obtained:
Assay in all cases: glycan array binding signal (z-score within array); higher = stronger binding
Details in all cases: glycan notation: IUPAC condensed, linker removed
[1] = target: Neu5Ac(a2-3)Gal(b1-4)GlcNAc(b1-6)GalNAc
Outline: (§1)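 Glycan array data came from 3228 arrays in the Consortium for Functional Glycomics database, and only arrays with an available protein sequence were kept. Glycan names were put into IUPAC-condensed notation, and columns mapping to the same glycan were averaged. The binding signal is a within-array Z-score, averaged across arrays of one protein sequence run at different concentrations or buffers and across linkers. A negative Z-score can be read as non-binding.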

[2] = target: Neu5Ac(a2-3)Gal(b1-4)GlcNAc(b1-6)[Gal(b1-3)]GalNAc
Outline: as §1

[3] = target: Neu5Ac(a2-3)Gal(b1-4)GlcNAc(b1-6)[Neu5Ac(a2-3)Gal(b1-3)]GalNAc
Outline: as §1

[4] = target: Neu5Ac(a2-3)Gal(b1-4)GlcNAc6S
Outline: as §1

[5] = target: Neu5Ac(a2-3)Gal(b1-4)[Fuc(a1-3)]GlcNAc
Outline: as §1

[6] = target: Neu5Ac(a2-3)Gal(b1-4)[Fuc(a1-3)]GlcNAc(b1-2)Man
Outline: as §1

[7] = target: Neu5Ac(a2-3)Gal(b1-4)[Fuc(a1-3)]GlcNAc(b1-3)Gal
Outline: as §1

[8] = target: Neu5Ac(a2-3)Gal(b1-4)[Fuc(a1-3)]GlcNAc(b1-3)Gal(b1-4)GlcNAc
Outline: as §1

[9] = target: Neu5Ac(a2-3)Gal(b1-4)[Fuc(a1-3)]GlcNAc(b1-3)Gal(b1-4)[Fuc(a1-3)]GlcNAc(b1-3)Gal(b1-4)[Fuc(a1-3)]GlcNAc
Outline: as §1

[10] = target: Neu5Ac(a2-3)Gal(b1-4)[Fuc(a1-3)]GlcNAc(b1-3)GalNAc
Outline: as §1

[11] = target: Neu5Ac(a2-3)Gal(b1-4)[Fuc(a1-3)]GlcNAc(b1-6)[Gal(b1-3)]GalNAc
Outline: as §1

[12] = target: Neu5Ac(a2-3)Gal(b1-4)[Fuc(a1-3)]GlcNAc(b1-6)[Neu5Ac(a2-3)Gal(b1-3)]GalNAc
Outline: as §1

[13] = target: Neu5Ac(a2-3)Gal(b1-4)[Fuc(a1-3)]GlcNAc6S
Outline: as §1

[14] = target: Neu5Ac(a2-3)Gal6S(b1-4)GlcNAc
Outline: as §1

[15] = target: Neu5Ac(a2-3)Gal6S(b1-4)[Fuc(a1-3)]GlcNAc
Outline: as §1

[16] = target: Neu5Ac(a2-3)GalNAc
Outline: as §1

[17] = target: Neu5Ac(a2-3)GalNAc(b1-4)GlcNAc
Outline: as §1

[18] = target: Neu5Ac(a2-3)[GalNAc(b1-4)]Gal(b1-4)Glc
Outline: as §1

[19] = target: Neu5Ac(a2-3)[GalNAc(b1-4)]Gal(b1-4)GlcNAc
Outline: as §1

[20] = target: Neu5Ac(a2-3)[GalNAc(b1-4)]Gal(b1-4)GlcNAc(b1-3)GalNAc
Outline: as §1

[21] = target: Neu5Ac(a2-3)[Neu5Ac(a2-6)]GalNAc
Outline: as §1

[22] = target: Neu5Ac(a2-6)Gal
Outline: as §1

[23] = target: Neu5Ac(a2-6)Gal(b1-3)GlcNAc(b1-3)[Gal(b1-4)GlcNAc(b1-6)]Gal(b1-4)Glc
Outline: as §1

[24] = target: Neu5Ac(a2-6)Gal(b1-4)Glc
Outline: as §1

[25] = target: Neu5Ac(a2-6)Gal(b1-4)GlcNAc
Outline: as §1

[26] = target: Neu5Ac(a2-6)Gal(b1-4)GlcNAc(b1-2)Man
Outline: as §1

[27] = target: Neu5Ac(a2-6)Gal(b1-4)GlcNAc(b1-2)Man(a1-3)Man(b1-4)GlcNAc(b1-4)GlcNAc
Outline: as §1

[28] = target: Neu5Ac(a2-6)Gal(b1-4)GlcNAc(b1-2)Man(a1-3)[Gal(b1-4)GlcNAc(b1-2)Man(a1-6)]Man(b1-4)GlcNAc(b1-4)GlcNAc
Outline: as §1

[29] = target: Neu5Ac(a2-6)Gal(b1-4)GlcNAc(b1-2)Man(a1-3)[GlcNAc(b1-4)][Neu5Ac(a2-6)Gal(b1-4)GlcNAc(b1-2)Man(a1-6)]Man(b1-4)GlcNAc(b1-4)GlcNAc
Outline: as §1

[30] = target: Neu5Ac(a2-6)Gal(b1-4)GlcNAc(b1-2)Man(a1-3)[Man(a1-6)]Man(b1-4)GlcNAc(b1-4)GlcNAc
Outline: as §1

[31] = target: Neu5Ac(a2-6)Gal(b1-4)GlcNAc(b1-2)Man(a1-3)[Neu5Ac(a2-3)Gal(b1-4)GlcNAc(b1-2)Man(a1-6)]Man(b1-4)GlcNAc(b1-4)GlcNAc
Outline: as §1

[32] = target: Neu5Ac(a2-6)Gal(b1-4)GlcNAc(b1-2)Man(a1-3)[Neu5Ac(a2-6)Gal(b1-4)GlcNAc(b1-2)Man(a1-6)]Man(b1-4)GlcNAc(b1-4)GlcNAc
Outline: as §1

[33] = target: Neu5Ac(a2-6)Gal(b1-4)GlcNAc(b1-2)Man(a1-3)[Neu5Ac(a2-6)Gal(b1-4)GlcNAc(b1-2)Man(a1-6)]Man(b1-4)GlcNAc(b1-4)[Fuc(a1-6)]GlcNAc
Outline: as §1

[34] = target: Neu5Ac(a2-6)Gal(b1-4)GlcNAc(b1-2)Man(a1-6)Man(b1-4)GlcNAc(b1-4)GlcNAc
Outline: as §1

[35] = target: Neu5Ac(a2-6)Gal(b1-4)GlcNAc(b1-2)Man(a1-6)[Gal(b1-4)GlcNAc(b1-2)Man(a1-3)]Man(b1-4)GlcNAc(b1-4)GlcNAc
Outline: as §1

[36] = target: Neu5Ac(a2-6)Gal(b1-4)GlcNAc(b1-2)Man(a1-6)[GlcNAc(b1-2)Man(a1-3)]Man(b1-4)GlcNAc(b1-4)GlcNAc
Outline: as §1

[37] = target: Neu5Ac(a2-6)Gal(b1-4)GlcNAc(b1-2)Man(a1-6)[Man(a1-3)]Man(b1-4)GlcNAc(b1-4)GlcNAc
Outline: as §1

[38] = target: Neu5Ac(a2-6)Gal(b1-4)GlcNAc(b1-2)[Neu5Ac(a2-6)Gal(b1-4)GlcNAc(b1-4)]Man(a1-3)[GlcNAc(b1-4)][Neu5Ac(a2-6)Gal(b1-4)GlcNAc(b1-2)[Neu5Ac(a2-6)Gal(b1-4)GlcNAc(b1-6)]Man(a1-6)]Man(b1-4)GlcNAc(b1-4)GlcNAc
Outline: as §1

[39] = target: Neu5Ac(a2-6)Gal(b1-4)GlcNAc(b1-2)[Neu5Ac(a2-6)Gal(b1-4)GlcNAc(b1-4)]Man(a1-3)[GlcNAc(b1-4)][Neu5Ac(a2-6)Gal(b1-4)GlcNAc(b1-4)Man(a1-6)]Man(b1-4)GlcNAc(b1-4)GlcNAc
Outline: as §1

[40] = target: Neu5Ac(a2-6)Gal(b1-4)GlcNAc(b1-2)[Neu5Ac(a2-6)Gal(b1-4)GlcNAc(b1-6)]Man(a1-6)[Neu5Ac(a2-6)Gal(b1-4)GlcNAc(b1-2)Man(a1-3)][GlcNAc(b1-4)]Man(b1-4)GlcNAc(b1-4)GlcNAc
Outline: as §1

[41] = target: Neu5Ac(a2-6)Gal(b1-4)GlcNAc(b1-3)Gal(b1-3)GlcNAc
Outline: as §1

[42] = target: Neu5Ac(a2-6)Gal(b1-4)GlcNAc(b1-3)Gal(b1-4)GlcNAc
Outline: as §1

[43] = target: Neu5Ac(a2-6)Gal(b1-4)GlcNAc(b1-3)Gal(b1-4)GlcNAc(b1-2)Man(a1-3)[Neu5Ac(a2-6)Gal(b1-4)GlcNAc(b1-3)Gal(b1-4)GlcNAc(b1-2)Man(a1-6)]GalNAc
Outline: as §1

[44] = target: Neu5Ac(a2-6)Gal(b1-4)GlcNAc(b1-3)Gal(b1-4)GlcNAc(b1-3)Gal(b1-4)GlcNAc
Outline: as §1

[45] = target: Neu5Ac(a2-6)Gal(b1-4)GlcNAc(b1-3)Gal(b1-4)GlcNAc(b1-3)Gal(b1-4)GlcNAc(b1-2)Man(a1-3)[Neu5Ac(a2-6)Gal(b1-4)GlcNAc(b1-3)Gal(b1-4)GlcNAc(b1-3)Gal(b1-4)GlcNAc(b1-2)Man(a1-6)]GalNAc
Outline: as §1

B1: Pwp1 (Candida glabrata) (protein)
chain: MGSSHHHHHHSSGLVPRGSHMASANPISITNVCQFPDNWARTAGFQATTVRLGLTIASNTYKELLNYPGLFNFATQKATVTQPNFSISGFPFFTGLYGLTVWPINLLVELQGYFVPPESGNYTFTLQGSDDAAILFFANPSTFACGSQNDWPQPREADITVTDTLVPSRTLYLVKGVAYPIRIAYYNGSGDGKLNVSFKDPSGTTHTDWKGYVWQYSNTCSTCTYT
glycan array binding signal (z-score) [1]: 0.128 | glycan array binding signal (z-score) [2]: 0.893 | glycan array binding signal (z-score) [3]: -0.22 | glycan array binding signal (z-score) [4]: -0.477 | glycan array binding signal (z-score) [5]: 0.918 | glycan array binding signal (z-score) [6]: -1.41 | glycan array binding signal (z-score) [7]: 0.574 | glycan array binding signal (z-score) [8]: -2.11 | glycan array binding signal (z-score) [9]: 0.456 | glycan array binding signal (z-score) [10]: -0.259 | glycan array binding signal (z-score) [11]: -0.909 | glycan array binding signal (z-score) [12]: -1.79 | glycan array binding signal (z-score) [13]: -1.03 | glycan array binding signal (z-score) [14]: -1.03 | glycan array binding signal (z-score) [15]: 0.436 | glycan array binding signal (z-score) [16]: 0.683 | glycan array binding signal (z-score) [17]: 0.042 | glycan array binding signal (z-score) [18]: 0.779 | glycan array binding signal (z-score) [19]: 0.864 | glycan array binding signal (z-score) [20]: 0.767 | glycan array binding signal (z-score) [21]: -0.913 | glycan array binding signal (z-score) [22]: -0.133 | glycan array binding signal (z-score) [23]: 0.548 | glycan array binding signal (z-score) [24]: -0.253 | glycan array binding signal (z-score) [25]: 0.954 | glycan array binding signal (z-score) [26]: 0.859 | glycan array binding signal (z-score) [27]: -1.55 | glycan array binding signal (z-score) [28]: 0.44 | glycan array binding signal (z-score) [29]: -0.52 | glycan array binding signal (z-score) [30]: -0.785 | glycan array binding signal (z-score) [31]: -0.104 | glycan array binding signal (z-score) [32]: -0.46 | glycan array binding signal (z-score) [33]: -2.48 | glycan array binding signal (z-score) [34]: -0.877 | glycan array binding signal (z-score) [35]: -1.02 | glycan array binding signal (z-score) [36]: -1.35 | glycan array binding signal (z-score) [37]: 0.335 | glycan array binding signal (z-score) [38]: -1.02 | glycan array binding signal (z-score) [39]: 1.29 | glycan array binding signal (z-score) [40]: -0.775 | glycan array binding signal (z-score) [41]: -1.81 | glycan array binding signal (z-score) [42]: -1.47 | glycan array binding signal (z-score) [43]: -1.41 | glycan array binding signal (z-score) [44]: -0.859 | glycan array binding signal (z-score) [45]: -1.2

— the supplement of paper PMC8728848
